PubChem BioAssay AID652243 – Drosophila RNAi Screening Center, 2013

Assay: 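Fly regulators of androgen-dependent reporter output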 (primary screen)
Cell system: Drosophila S2R+ cells
Reagents: long dsRNA against Drosophila genes
Duration: 72 h (48 h, then 24 h hormone)
Challenge: synthetic androgen R1881 at 10 nM for 24 h
Measurement: 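Firefly light from an androgen-responsive reporter and Renilla control light per well, raw and unnormalised, for each of two replicates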
Reading the numbers: firefly reporter light: higher = more light from androgen-responsive reporter; Renilla control light: higher = more constitutive control signal (cell number, transfection)
Call rule: 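Hit when the log firefly-to-Renilla ratio dropped or increased by a fixed fold versus the mean of GFP or LacZ controls across duplicate plates; lowering cut given as 1.5 and as 3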
Calls: active = hit: reporter lowered or raised; inactive = no hit
In all, the deposit lists about 24,000 reagents; below is a random part of those with a known target gene and a result. Of all reagents, 246 (1%) are marked active. 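Plates not normalised; calls are printed but the firefly/Renilla ratio behind them is not deposited; fold cut for lowering reported inconsistently.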 The raw values are shown without normalisation. Names joined by + are all predicted targets of the reagent. The record does not give: the amount of reagent.

gene	DRSC id	firefly reporter light, replicate 1	firefly reporter light, replicate 2	Renilla control light, replicate 1	Renilla control light, replicate 2	outcome
Ca-Ma2d	DRSC29730	5.69e5	4.91e5	1.67e6	1.81e6	inactive
AIMP1	DRSC07118	2.59e5	1.77e5	2.50e6	1.89e6	inactive
AIMP1	DRSC25922	2.28e5	2.52e5	6.92e5	5.37e5	inactive
CG17224	DRSC00489	95215	1.61e5	9.80e5	1.70e6	inactive
U3-55K	DRSC05982	64918	1.35e5	1.49e6	1.49e6	inactive
U3-55K	DRSC29090	4.63e5	3.61e5	1.23e6	1.40e6	inactive
arr	DRSC07451	1.06e5	70632	1.96e6	1.96e6	inactive
arr	DRSC27035	4.69e5	3.23e5	7.39e5	4.80e5	inactive
Ugt305A1	DRSC08541	1.14e5	74757	1.29e6	7.98e5	inactive
Ugt305A1	DRSC26426	2.17e5	2.65e5	4.57e5	6.16e5	inactive
Bacc	DRSC27262	3.95e5	3.23e5	8.43e5	7.14e5	inactive
RpS14a	DRSC18710	1.76e5	1.87e5	1.60e6	1.47e6	inactive
Mpi	DRSC16417	82631	80070	1.70e6	1.79e6	inactive
Gs1l	DRSC00754	94568	1.17e5	7.95e5	7.02e5	inactive
Ald2	DRSC15799	1.15e5	2.19e5	1.96e6	2.13e6	inactive
Ald2	DRSC25164	4.15e5	4.65e5	5.71e5	6.58e5	inactive
CG15203	DRSC19650	4.47e5	5.18e5	3.74e6	3.37e6	inactive
CG10053	DRSC12502	75738	80173	5.91e5	6.30e5	inactive
CG10053	DRSC29993	6.10e5	3.68e5	1.02e6	1.03e6	inactive
CG3907	DRSC04432	1.55e5	1.70e5	8.15e5	1.20e6	inactive
CG4998	DRSC10466	1.54e5	1.42e5	6.98e5	1.00e6	inactive
CG4998	DRSC22911	6.27e5	1.50e6	1.23e6	2.32e6	inactive
ftz	DRSC12626	64154	65548	1.15e6	1.15e6	inactive
ftz	DRSC28088	3.01e5	2.84e5	1.09e6	9.37e5	inactive
CG6867	DRSC20013	8.07e5	9.22e5	1.79e6	2.24e6	inactive
CG6867	DRSC25889	2.92e5	2.89e5	7.91e5	7.02e5	inactive
Syt4	DRSC12606	47621	71244	1.40e6	1.22e6	inactive
Ucp4A	DRSC19996	4.19e5	6.59e5	1.03e6	2.00e6	inactive
Ucp4A	DRSC27013	5.36e5	4.22e5	8.09e5	6.44e5	inactive
nAChRalpha5	DRSC01946	3.54e5	3.07e5	2.56e6	1.89e6	inactive
nAChRalpha5	DRSC01947	2.70e5	4.58e5	4.86e5	7.46e5	inactive
nAChRalpha5	DRSC22785	5.50e5	7.55e5	1.11e5	1.53e5	inactive
nAChRalpha5	DRSC29085	4.47e5	4.55e5	9.11e5	7.16e5	inactive
HDAC4	DRSC19780	3.69e5	3.52e5	3.60e6	3.83e6	inactive
HDAC4	DRSC25237	87642	27316	4.15e5	4.87e5	active
Nmt	DRSC11236	3.13e5	1.86e5	3.99e6	1.71e6	inactive

A stretch taken from the entries so far:
gene	DRSC id	firefly reporter light, replicate 1	firefly reporter light, replicate 2	Renilla control light, replicate 1	Renilla control light, replicate 2	outcome
ftz	DRSC28088	3.01e5	2.84e5	1.09e6	9.37e5	inactive
CG6867	DRSC20013	8.07e5	9.22e5	1.79e6	2.24e6	inactive
CG6867	DRSC25889	2.92e5	2.89e5	7.91e5	7.02e5	inactive
Syt4	DRSC12606	47621	71244	1.40e6	1.22e6	inactive

Additional entries follow.
gene	DRSC id	firefly reporter light, replicate 1	firefly reporter light, replicate 2	Renilla control light, replicate 1	Renilla control light, replicate 2	outcome
Galphai	DRSC11168	1.44e6	9.61e5	2.29e6	1.76e6	inactive
Galphai	DRSC28521	2.93e5	4.52e5	3.85e5	8.82e5	inactive
CG14752	DRSC06488	3.65e5	3.85e5	2.08e6	2.35e6	inactive
COX7A	DRSC16514	1.27e5	1.32e5	2.25e6	1.83e6	inactive
CG11786	DRSC14389	1.84e5	2.31e5	2.77e6	3.20e6	inactive
CG7886	DRSC16333	2.59e5	2.26e5	1.92e6	2.36e6	inactive
Tsp33B	DRSC02418	2.31e5	1.67e5	8.74e5	1.38e6	inactive
Tsp33B	DRSC28982	7.73e5	7.25e5	1.68e6	1.28e6	inactive
san	DRSC07695	3.00e5	2.39e5	2.02e6	1.88e6	inactive
sds22	DRSC17052	69844	82756	9.97e5	9.30e5	inactive
sds22	DRSC36802					inactive
CG33342	DRSC13662	83504	1.44e5	1.68e5	2.10e5	inactive
Act5C	DRSC17723	1.68e5	2.31e5	2.26e6	2.95e6	inactive
Act5C	DRSC25024	5.17e5	7.27e5	7.12e5	6.72e5	inactive
gskt	DRSC14056	1.04e6	1.09e6	2.07e6	1.33e6	inactive
gskt	DRSC25861	2.66e5	2.99e5	8.53e5	8.16e5	inactive
CG30338	DRSC05166	2.76e5	4.08e5	4.34e5	8.34e5	inactive
CG4328	DRSC23146	6.90e5	9.67e5	8.94e5	9.42e5	inactive
CG4328	DRSC28606	4.22e5	3.46e5	1.35e6	1.24e6	inactive
ast	DRSC00803	4.70e5	4.57e5	2.10e6	1.67e6	inactive
ast	DRSC27973	5.62e5	3.34e5	2.27e6	1.49e6	inactive
CG11406	DRSC04010	1.24e5	1.81e5	99469	1.43e5	inactive
CG11406	DRSC04108	3.18e5	4.35e5	2.35e6	2.64e6	inactive
l(2)k09022	DRSC02108	9.23e5	1.09e6	2.42e6	2.12e6	inactive
MTF-1	DRSC11217	3.93e5	3.66e5	3.00e6	2.46e6	inactive
MTF-1	DRSC21341	8.49e5	8.07e5	1.58e6	1.41e6	inactive
CG14961	DRSC08420	83695	1.05e5	1.44e6	1.68e6	inactive
Ktl	DRSC14270	84671	97784	5.49e5	8.39e5	inactive
fsd	DRSC06166	2.24e5	2.35e5	1.28e6	1.29e6	inactive
spz4	DRSC02410	3.86e5	2.90e5	1.43e6	1.78e6	inactive
spz4	DRSC27274	2.26e5	2.57e5	6.90e5	6.82e5	inactive
CG14744	DRSC06480	4.52e5	3.74e5	2.58e6	1.63e6	inactive
CG30486	DRSC06680	3.50e5	2.68e5	1.19e6	1.78e6	inactive
rdog	DRSC14431	97727	1.10e5	7.11e5	6.42e5	inactive
rdog	DRSC26545	3.94e5	3.10e5	4.00e5	5.84e5	inactive
Cap-D3 + tomb	DRSC02347	1.27e5	1.40e5	1.21e6	1.12e6	inactive
Spn43Aa	DRSC06117	6.71e5	4.89e5	1.01e6	9.45e5	inactive
Prosalpha4	DRSC20271	3.25e5	3.60e5	2.96e6	2.42e6	inactive
Prosalpha4	DRSC25287	4.53e5	3.17e5	4.92e5	4.42e5	inactive
